Laboratory results as given in patent US20110085986A1, “Diagnosis and treatment of epithelial cancers using labeled/conjugated progastrin peptides” (priority 2009, published 2011).
Part of at least one peptide drawing is inferred or uncertain, most often the ends. Peptide text beside a SMILES is read from it. * marks the point of attachment. FITC = O=C1OC2(c3ccc(O)cc3Oc3cc(O)ccc32)c2ccc(NC(=S)*)cc21

Test system: colon cancer xenograft
Assay: Homing of FITC-PG26 to Anx A2 over-expressing tumors growing as xenografts in nude mice
Assay type: in vivo
Experimental: FIGS. 8A-E depict 10-100 μg of FITC-PG-26 peptide was dissolved in 100 μl of saline was used to detect the tumor in nude mice. The images were captured in live mice after 1-60 minutes, with injection on the tumor site (FIG. 8A) or through tail vein (FIGS. 8B-D). In FIG. 8B, the localization of tumor cells are marked with arrows detected after 5 minutes post tail vein injection.
For data presented in FIGS. 2-4, 5A-5B and 6A-6E, the full length 80 amino acid rhPG was used (SEQ ID NO: 2), which was visualized by staining with fluorescently labeled primary or secondary antibodies. However, in order to examine the feasibility of using PG peptides for diagnostic and treatment purposes, synthesized FITC labeled PG fragments (PG26, SEQ ID NO 1: […]) conjugated with either radio- or fluorescently labeled imaging reagents (for diagnostic purposes), or with cytotoxic payloads (for therapeutic purposes) was studied. […] Endocytotic internalization of FITC-PG26 in PG responsive immortalized kidney embryonic cell line, HEK-293, was examined. Strong peri-nuclear co-localization of FITC-PG26 with Anx A2 was measured within 15 min of labeling in a chase experiment (FIG. 7). […] The homing potential of FITC-PG26 to Anx A2 over-expressing tumors, growing as xenografts in nude mice, was confirmed, as shown in FIGS. 8A-8E.
The 26 amino acid PG peptide (PG26), labeled with FITC at the N-terminal end, specifically homed to the site of a colon cancer xenograft, growing either under the skin or growing as a metastatic lesion in the liver. […] FITC-PG26 successfully homed to the tumor site after i.v. injection through the tail vein, within 5 min of injection, and was retained in the tumor for ˜60 min (FIG. 8C). […] Even small tumor lesions were detected with FITC-PG26 after […] of tail vein injection (FIG. 8B). FITC-control peptide was not detected after 30 min of injecting into the tail vein (FIG. 8E), confirming the specificity of FITC-PG26 peptide for homing to tumors in situ.

CSCC[C@H](NC(=O)[C@H](Cc1c[nH]c2ccccc12)NC(=O)CNC(=O)[C@H](Cc1ccc(O)cc1)NC(=O)[C@H](C)NC(=O)[C@H](CCC(=O)O)NC(=O)[C@H](CCC(=O)O)NC(=O)[C@H](CCC(=O)O)NC(=O)[C@H](CCC(=O)O)NC(=O)[C@H](CCC(=O)O)NC(=O)[C@H](CC(C)C)NC(=O)[C@H](Cc1c[nH]c2ccccc12)NC(=O)[C@@H]1CCCN1C(=O)CNC(=O)[C@H](CCC(N)=O)NC(=S)Nc1ccc2c(c1)C(=O)OC21c2ccc(O)cc2Oc2cc(O)ccc21)C(=O)N[C@@H](CC(=O)O)C(=O)N[C@@H](Cc1ccccc1)C(=O)NCC(=O)N[C@@H](CCCNC(=N)N)C(=O)N[C@@H](CCCNC(=N)N)C(=O)N[C@@H](CO)C(=O)N[C@@H](C)C(=O)N[C@@H](CCC(=O)O)C(=O)N[C@@H](CC(=O)O)C(=O)N[C@@H](CCC(=O)O)C(=O)N[C@@H](CC(N)=O)C(=O)O [FITC-PG26] ({FITC}-QGPWLEEEEEAYGWMDFGRRSAEDEN-OH; N-terminus and C-terminus assumed)
FITC signal on the tumor (60 min post injection, tail vein, FIG. 8C legend): persistent | detection of small tumor lesions (after 15 min of tail vein injection, FIG. 8B): detected | time to homing to the tumor site (i.v. injection through the tail vein): ≤ 5 min | tumor homing (sub dermal tumor xenograft and metastatic lesion in the liver, FIG. 8D): successfully observed
